According to PMC4666396:
These are yes or no findings as the source states them, for the method shown. Binding seen in cells or lysates may run through a third protein. A yes stands for co-enrichment or nearness to the bait. Other partners may have been found.

Sequences of proteins named here, by UniProt entry; tags and fusion partners are left off.
UniProt Q09161: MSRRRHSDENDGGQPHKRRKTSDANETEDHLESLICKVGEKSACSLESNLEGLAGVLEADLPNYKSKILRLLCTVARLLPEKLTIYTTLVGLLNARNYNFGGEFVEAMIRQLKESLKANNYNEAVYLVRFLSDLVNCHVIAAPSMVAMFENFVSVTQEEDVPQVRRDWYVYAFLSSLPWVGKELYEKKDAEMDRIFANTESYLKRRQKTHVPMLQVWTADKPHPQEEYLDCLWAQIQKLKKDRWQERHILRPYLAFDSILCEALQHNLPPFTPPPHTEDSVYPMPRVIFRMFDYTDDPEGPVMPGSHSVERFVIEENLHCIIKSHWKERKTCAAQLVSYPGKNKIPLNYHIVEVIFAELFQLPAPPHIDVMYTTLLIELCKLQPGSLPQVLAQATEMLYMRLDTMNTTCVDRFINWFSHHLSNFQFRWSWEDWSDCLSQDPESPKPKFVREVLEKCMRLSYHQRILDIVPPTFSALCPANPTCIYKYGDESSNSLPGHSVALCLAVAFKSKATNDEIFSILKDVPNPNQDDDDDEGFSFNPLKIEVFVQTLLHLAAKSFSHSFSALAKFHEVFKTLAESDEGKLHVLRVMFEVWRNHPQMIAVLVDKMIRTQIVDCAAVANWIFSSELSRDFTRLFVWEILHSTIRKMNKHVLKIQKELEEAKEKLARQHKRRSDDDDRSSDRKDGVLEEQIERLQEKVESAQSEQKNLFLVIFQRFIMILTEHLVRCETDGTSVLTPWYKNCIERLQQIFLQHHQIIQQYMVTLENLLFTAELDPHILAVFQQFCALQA
UniProt Q96SB4: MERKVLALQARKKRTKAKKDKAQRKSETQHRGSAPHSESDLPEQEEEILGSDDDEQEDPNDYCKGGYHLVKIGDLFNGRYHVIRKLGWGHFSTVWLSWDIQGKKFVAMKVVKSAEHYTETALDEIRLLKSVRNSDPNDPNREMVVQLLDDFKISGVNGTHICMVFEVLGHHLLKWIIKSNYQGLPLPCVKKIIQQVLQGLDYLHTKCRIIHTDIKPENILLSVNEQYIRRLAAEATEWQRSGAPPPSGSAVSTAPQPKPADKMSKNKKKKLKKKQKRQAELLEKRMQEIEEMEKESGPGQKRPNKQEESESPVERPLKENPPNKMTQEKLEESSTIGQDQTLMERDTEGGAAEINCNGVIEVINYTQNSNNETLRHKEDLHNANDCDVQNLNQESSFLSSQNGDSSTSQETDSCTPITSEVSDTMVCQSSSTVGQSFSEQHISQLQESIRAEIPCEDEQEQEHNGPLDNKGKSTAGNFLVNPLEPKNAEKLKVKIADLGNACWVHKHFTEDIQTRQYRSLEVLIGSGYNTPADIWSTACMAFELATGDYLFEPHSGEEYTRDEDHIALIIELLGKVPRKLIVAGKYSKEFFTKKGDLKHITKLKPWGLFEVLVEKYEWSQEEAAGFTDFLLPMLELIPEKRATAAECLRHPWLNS
UniProt Q9UQ35: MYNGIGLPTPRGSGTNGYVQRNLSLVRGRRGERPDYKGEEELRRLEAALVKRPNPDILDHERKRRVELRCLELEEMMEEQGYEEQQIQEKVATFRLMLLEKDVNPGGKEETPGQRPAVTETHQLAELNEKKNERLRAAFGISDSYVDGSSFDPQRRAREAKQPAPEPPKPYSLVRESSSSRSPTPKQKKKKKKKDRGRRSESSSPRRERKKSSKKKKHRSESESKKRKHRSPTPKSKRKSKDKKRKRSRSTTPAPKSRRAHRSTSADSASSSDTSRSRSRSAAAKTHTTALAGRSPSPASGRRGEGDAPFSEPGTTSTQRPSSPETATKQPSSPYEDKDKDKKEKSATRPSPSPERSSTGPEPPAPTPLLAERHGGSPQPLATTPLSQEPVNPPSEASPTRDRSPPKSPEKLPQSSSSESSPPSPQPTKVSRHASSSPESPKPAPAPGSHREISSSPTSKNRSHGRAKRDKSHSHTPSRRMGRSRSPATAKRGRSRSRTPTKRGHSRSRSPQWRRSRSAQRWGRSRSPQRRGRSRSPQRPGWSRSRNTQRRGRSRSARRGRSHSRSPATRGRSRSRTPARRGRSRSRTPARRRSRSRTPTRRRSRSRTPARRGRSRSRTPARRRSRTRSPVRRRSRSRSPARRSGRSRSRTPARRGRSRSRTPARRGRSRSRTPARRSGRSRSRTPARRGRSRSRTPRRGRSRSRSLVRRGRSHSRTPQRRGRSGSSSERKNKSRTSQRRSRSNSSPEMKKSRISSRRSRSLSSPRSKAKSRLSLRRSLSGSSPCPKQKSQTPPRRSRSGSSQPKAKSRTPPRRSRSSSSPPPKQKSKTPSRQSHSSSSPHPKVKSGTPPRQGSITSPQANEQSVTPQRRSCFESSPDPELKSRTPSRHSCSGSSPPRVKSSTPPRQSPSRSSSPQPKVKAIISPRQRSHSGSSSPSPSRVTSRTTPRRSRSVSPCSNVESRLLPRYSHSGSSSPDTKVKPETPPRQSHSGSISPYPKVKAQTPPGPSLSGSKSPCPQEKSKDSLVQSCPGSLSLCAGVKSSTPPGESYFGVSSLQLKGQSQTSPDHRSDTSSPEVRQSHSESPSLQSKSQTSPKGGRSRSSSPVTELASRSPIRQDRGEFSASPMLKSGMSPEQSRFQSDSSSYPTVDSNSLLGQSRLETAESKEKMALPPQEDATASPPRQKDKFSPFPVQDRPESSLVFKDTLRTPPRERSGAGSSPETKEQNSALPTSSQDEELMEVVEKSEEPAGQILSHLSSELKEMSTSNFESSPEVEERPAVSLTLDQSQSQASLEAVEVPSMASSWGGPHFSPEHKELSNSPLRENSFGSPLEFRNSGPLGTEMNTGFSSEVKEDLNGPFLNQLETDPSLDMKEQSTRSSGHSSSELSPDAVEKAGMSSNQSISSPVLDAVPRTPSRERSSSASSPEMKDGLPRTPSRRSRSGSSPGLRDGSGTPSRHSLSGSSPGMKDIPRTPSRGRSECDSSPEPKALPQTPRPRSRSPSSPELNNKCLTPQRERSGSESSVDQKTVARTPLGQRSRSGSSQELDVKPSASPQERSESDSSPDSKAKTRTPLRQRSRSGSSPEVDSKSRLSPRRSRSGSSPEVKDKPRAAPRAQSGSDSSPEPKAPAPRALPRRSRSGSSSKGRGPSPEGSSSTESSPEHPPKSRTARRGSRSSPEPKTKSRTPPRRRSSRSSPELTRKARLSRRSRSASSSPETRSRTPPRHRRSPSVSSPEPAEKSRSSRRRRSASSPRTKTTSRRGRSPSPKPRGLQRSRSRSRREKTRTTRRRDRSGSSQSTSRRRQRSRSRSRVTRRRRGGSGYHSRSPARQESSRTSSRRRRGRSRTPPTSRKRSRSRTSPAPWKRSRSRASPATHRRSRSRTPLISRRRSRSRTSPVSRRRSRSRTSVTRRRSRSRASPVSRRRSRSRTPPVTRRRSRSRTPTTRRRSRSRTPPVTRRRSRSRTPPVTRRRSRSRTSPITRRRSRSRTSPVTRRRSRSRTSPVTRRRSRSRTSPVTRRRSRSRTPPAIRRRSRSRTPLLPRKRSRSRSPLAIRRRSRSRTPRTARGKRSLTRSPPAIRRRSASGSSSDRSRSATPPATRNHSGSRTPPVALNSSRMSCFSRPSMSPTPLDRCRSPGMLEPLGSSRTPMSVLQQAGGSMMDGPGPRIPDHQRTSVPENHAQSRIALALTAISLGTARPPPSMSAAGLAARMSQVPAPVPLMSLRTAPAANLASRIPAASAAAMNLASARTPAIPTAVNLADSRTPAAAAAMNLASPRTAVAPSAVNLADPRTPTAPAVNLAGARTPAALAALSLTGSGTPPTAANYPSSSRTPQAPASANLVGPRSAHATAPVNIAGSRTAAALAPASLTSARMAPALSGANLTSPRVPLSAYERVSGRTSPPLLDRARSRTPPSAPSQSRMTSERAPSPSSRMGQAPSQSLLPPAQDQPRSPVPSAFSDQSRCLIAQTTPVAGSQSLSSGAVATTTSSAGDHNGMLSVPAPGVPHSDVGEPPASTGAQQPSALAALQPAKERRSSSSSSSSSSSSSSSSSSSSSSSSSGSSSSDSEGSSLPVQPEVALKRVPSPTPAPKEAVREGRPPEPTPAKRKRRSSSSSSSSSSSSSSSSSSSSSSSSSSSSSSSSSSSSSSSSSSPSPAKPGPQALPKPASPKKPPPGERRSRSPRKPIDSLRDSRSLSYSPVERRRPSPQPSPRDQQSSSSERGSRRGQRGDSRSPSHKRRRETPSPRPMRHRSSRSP
UniProt P62304: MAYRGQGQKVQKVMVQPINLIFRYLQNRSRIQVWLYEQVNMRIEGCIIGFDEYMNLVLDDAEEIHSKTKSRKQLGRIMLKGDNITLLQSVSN
UniProt O15042: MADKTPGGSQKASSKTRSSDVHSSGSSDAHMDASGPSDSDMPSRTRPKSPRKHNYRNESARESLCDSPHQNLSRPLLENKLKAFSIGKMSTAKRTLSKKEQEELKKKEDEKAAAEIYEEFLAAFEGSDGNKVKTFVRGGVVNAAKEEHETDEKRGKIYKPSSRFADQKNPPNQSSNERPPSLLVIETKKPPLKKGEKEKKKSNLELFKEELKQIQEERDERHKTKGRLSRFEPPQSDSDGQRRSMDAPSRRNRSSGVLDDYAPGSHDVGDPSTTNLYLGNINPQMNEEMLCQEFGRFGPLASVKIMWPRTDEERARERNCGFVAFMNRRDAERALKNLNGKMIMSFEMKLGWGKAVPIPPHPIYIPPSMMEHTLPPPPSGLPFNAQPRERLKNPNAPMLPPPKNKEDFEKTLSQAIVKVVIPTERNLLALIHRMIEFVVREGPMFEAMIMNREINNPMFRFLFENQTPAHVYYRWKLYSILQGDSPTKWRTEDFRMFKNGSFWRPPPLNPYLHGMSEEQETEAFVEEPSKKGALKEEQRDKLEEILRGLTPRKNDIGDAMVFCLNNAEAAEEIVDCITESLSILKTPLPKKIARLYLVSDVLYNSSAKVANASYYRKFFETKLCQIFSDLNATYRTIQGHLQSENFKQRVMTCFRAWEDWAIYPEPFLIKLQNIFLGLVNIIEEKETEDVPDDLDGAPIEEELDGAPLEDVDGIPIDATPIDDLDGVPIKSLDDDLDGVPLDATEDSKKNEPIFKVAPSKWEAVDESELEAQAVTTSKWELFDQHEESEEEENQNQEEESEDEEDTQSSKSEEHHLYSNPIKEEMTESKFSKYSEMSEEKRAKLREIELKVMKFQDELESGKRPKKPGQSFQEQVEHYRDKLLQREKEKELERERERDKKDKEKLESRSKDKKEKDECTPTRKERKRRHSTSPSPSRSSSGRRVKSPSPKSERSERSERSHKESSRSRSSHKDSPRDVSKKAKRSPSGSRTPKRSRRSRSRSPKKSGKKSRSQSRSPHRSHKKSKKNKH
UniProt O43670: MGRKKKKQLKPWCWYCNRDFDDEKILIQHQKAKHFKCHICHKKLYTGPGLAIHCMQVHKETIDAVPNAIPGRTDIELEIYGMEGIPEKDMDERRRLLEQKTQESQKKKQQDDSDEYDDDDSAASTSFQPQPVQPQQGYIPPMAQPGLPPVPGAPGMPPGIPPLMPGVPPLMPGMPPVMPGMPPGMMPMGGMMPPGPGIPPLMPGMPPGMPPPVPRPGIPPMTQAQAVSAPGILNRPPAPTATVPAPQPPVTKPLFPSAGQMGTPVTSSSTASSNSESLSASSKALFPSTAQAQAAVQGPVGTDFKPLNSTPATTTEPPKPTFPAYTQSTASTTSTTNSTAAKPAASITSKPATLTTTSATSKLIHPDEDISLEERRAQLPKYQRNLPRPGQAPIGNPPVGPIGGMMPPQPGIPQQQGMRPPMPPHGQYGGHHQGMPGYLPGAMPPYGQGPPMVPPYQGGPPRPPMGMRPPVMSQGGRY
UniProt O43143: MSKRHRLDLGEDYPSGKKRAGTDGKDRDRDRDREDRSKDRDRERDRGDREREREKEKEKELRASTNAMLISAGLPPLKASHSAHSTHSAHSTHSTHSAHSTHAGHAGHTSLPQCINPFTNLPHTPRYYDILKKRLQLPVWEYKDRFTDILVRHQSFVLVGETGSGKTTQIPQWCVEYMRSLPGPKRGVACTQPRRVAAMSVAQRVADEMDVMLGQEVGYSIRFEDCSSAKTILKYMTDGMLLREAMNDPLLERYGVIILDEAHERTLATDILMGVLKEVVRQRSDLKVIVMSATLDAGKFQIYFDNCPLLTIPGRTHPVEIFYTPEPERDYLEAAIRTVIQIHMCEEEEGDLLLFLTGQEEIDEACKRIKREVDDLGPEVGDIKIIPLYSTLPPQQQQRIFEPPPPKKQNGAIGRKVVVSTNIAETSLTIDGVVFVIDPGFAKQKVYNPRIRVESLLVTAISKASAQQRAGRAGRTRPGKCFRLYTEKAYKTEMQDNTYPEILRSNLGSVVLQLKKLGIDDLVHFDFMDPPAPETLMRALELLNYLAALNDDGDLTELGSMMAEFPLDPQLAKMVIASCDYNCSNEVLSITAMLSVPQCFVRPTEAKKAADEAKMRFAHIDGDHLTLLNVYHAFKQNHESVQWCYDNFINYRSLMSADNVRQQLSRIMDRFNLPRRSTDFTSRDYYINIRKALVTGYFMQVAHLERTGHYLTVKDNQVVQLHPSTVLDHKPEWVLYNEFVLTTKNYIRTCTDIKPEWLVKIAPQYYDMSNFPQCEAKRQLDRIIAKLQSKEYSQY

Biological target: T1, Splicing factor 1 (SF1) (human (endogenous in HeLa)) (UniProt Q15637)
T1 sequence: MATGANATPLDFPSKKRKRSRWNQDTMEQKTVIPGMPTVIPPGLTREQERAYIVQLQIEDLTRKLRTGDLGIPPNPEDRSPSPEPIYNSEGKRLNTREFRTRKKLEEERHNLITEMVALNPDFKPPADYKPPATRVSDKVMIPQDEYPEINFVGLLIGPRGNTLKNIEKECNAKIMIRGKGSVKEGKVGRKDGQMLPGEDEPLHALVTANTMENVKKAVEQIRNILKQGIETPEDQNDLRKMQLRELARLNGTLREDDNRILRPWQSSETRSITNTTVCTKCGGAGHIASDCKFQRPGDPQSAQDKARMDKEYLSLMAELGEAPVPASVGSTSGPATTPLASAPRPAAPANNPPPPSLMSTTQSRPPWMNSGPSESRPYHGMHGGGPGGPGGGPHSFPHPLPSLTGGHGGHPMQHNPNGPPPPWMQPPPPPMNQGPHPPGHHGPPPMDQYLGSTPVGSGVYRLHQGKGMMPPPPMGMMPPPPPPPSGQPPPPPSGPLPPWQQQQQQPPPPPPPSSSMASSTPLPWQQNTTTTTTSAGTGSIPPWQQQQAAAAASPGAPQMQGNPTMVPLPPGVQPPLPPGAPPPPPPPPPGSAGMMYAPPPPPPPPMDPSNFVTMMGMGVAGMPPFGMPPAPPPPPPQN
Assay: affinity purification with mass spectrometry; anti-SF1 on Protein G Sepharose; HeLa cell nuclear extract without or with 0.3 mg/ml RNase A; IP buffer 50 mM Tris-HCl pH 7.9, 100 mM NaCl, 0.05% NP-40, 0.5 mM DTT, 1 h 4°C; 1D PAGE, LC-MSMS; control mouse IgG

With BRD2 (from UniProt P25440 1-801) the binding was “binds”.

In the case of CBP80 (from UniProt Q09161 1-790), the binding is reported as “binds”.

CDC5L (from UniProt Q99459 1-802) was tested, and the binding was “binds”.

CDK11B (from UniProt P21127 1-795) was tested, and the binding was “binds”.

CKB (from UniProt P12277 1-381) was tested, and the binding was “binds”.

CYPH (from UniProt O43447 1-177) was tested, and the binding was “binds”.

For EIF3C (from UniProt Q99613 1-913), the binding was “binds”.

For HSPA4L (from UniProt O95757 1-839), the binding was “binds”.

With SF3b130 (from UniProt Q15393 1-1217) the binding was “binds”.

SF3b145 (from UniProt Q13435 1-895) was tested, and the binding was “binds”.

In the case of SF3b155 (from UniProt O75533 1-1304), the binding is reported as “binds”.

SRPK1 (from UniProt Q96SB4 1-655) was tested, and the binding was “binds”.

SRm300 (from UniProt Q9UQ35 1-2752) was tested, and the binding was “binds”.

In the case of Sm-E (from UniProt P62304 1-92), the binding is reported as “binds”.

With Sm-G (from UniProt P62308 1-76) the binding was “binds”.

TOE1 (from UniProt Q96GM8 1-510) was tested, and the binding was “binds”.

In the case of U1-A (from UniProt P09012 1-282), the binding is reported as “binds”.

With U1–70K (from UniProt P08621 1-437) the binding was “binds”.

In the case of “U2 snRNP-associated SURP motif-containing protein (U2SURP) (from UniProt O15042 1-1029)”, the binding is reported as “binds”.

For ZFR (from UniProt Q96KR1 1-1074), the binding was “binds”.

For ZNF207 (from UniProt O43670 1-478), the binding was “binds”.

For hPRP28 (from UniProt Q9BUQ8 1-820), the binding was “binds”.

hPRP43 (from UniProt O43143 1-795) was tested, and the binding was “binds”.
